Assay results published in PMC12696372.
Results are given in words; binding and its absence hold for the method and conditions named. Binding seen in cells or lysates may run through a third protein. Binding can be weak; no strength is given. Where a sequence is shown, tags or fusion partners need not be part of it.

Experiments:
[1] = biological target: OsPEL1-Cv (BiFC fusion) (rice (Oryza sativa)); experiment: split reporter; BiFC with N- and C-terminal halves of YFP in NT rice protoplasts, NLS-RFP cotransfected, confocal microscopy
[2] = biological target: OsPEL1-C-Luc (split-luciferase fusion) (rice (Oryza sativa)); experiment: split reporter; split-luciferase in planta: N-Luc and C-Luc fusions agroinfiltrated into tobacco leaves, 2 mM luciferin

Binder	binding [1]	binding [2]
OsGLK1-Nv (BiFC fusion) (protein, UniProt Q5Z5I4 1-455) MLAVSPAMCPDIEDRAAVAGDAGMEVVGMSSDDMDQFDFSVDDIDFGDFFLRLEDGDVLPDLEVDPAEIFTDFEAIATSGGEGVQDQEVPTVELLAPADDVGVLDPCGDVVVGEENAAFAGAGEEKGGCNQDDDAGEANVDDGAAAVEAKSSSPSSTTSSSQEAESRHKSSSKSSHGKKKAKVDWTPELHRRFVQAVEQLGIDKAVPSRILEIMGIDSLTRHNIASHLQKYRSHRKHMIAREAEAASWTQRRQIYAAGGGAVAKRPESNAWTVPTIGFPPPPPPPPSPAPIQHFARPLHVWGHPTMDPSRVPVWPPRHLVPRGPAPPWVPPPPPSDPAFWHHPYMRGPAHVPTQGTPCMAMPMPAARFPAPPVPGVVPCPMYRPLTPPALASKNQQDAQLQLQVQPSSESIDAAIGDVLSKPWLPLPLGLKPPSVDSVMGELQRQGVANVPPACG	binds	
OsGLK1-N-Luc (split-luciferase fusion) (protein, UniProt Q5Z5I4 1-455) MLAVSPAMCPDIEDRAAVAGDAGMEVVGMSSDDMDQFDFSVDDIDFGDFFLRLEDGDVLPDLEVDPAEIFTDFEAIATSGGEGVQDQEVPTVELLAPADDVGVLDPCGDVVVGEENAAFAGAGEEKGGCNQDDDAGEANVDDGAAAVEAKSSSPSSTTSSSQEAESRHKSSSKSSHGKKKAKVDWTPELHRRFVQAVEQLGIDKAVPSRILEIMGIDSLTRHNIASHLQKYRSHRKHMIAREAEAASWTQRRQIYAAGGGAVAKRPESNAWTVPTIGFPPPPPPPPSPAPIQHFARPLHVWGHPTMDPSRVPVWPPRHLVPRGPAPPWVPPPPPSDPAFWHHPYMRGPAHVPTQGTPCMAMPMPAARFPAPPVPGVVPCPMYRPLTPPALASKNQQDAQLQLQVQPSSESIDAAIGDVLSKPWLPLPLGLKPPSVDSVMGELQRQGVANVPPACG		binds
